Measured values from paper PMC10337854.
No constants are given. Whether binding was seen depends on the method and setting. Binding seen in cells or lysates may run through a third protein. Some entries that bind do so weakly or less than the wild type.

Legend:
[1] = target: tumor suppressor p53 (human (endogenous in HCT116)) (UniProt P04637); test: co-IP; lysates from HCT116 cells transfected with siZNNT1 (or control); precipitated with anti-p53 antibody or mouse IgG, blotted with anti-SART3 and anti-actin antibodies
[2] = target: T1, ubiquitin-specific peptidase USP15 (human (endogenous in HCT116)) (UniProt Q9Y4E8); test: co-IP; lysates from HCT116 cells; immunoprecipitation with anti-SART3 antibody, anti-USP15 antibody, rabbit IgG or mouse IgG; blotted with anti-SART3, anti-USP15 or anti-GAPDH antibody
T1 sequence: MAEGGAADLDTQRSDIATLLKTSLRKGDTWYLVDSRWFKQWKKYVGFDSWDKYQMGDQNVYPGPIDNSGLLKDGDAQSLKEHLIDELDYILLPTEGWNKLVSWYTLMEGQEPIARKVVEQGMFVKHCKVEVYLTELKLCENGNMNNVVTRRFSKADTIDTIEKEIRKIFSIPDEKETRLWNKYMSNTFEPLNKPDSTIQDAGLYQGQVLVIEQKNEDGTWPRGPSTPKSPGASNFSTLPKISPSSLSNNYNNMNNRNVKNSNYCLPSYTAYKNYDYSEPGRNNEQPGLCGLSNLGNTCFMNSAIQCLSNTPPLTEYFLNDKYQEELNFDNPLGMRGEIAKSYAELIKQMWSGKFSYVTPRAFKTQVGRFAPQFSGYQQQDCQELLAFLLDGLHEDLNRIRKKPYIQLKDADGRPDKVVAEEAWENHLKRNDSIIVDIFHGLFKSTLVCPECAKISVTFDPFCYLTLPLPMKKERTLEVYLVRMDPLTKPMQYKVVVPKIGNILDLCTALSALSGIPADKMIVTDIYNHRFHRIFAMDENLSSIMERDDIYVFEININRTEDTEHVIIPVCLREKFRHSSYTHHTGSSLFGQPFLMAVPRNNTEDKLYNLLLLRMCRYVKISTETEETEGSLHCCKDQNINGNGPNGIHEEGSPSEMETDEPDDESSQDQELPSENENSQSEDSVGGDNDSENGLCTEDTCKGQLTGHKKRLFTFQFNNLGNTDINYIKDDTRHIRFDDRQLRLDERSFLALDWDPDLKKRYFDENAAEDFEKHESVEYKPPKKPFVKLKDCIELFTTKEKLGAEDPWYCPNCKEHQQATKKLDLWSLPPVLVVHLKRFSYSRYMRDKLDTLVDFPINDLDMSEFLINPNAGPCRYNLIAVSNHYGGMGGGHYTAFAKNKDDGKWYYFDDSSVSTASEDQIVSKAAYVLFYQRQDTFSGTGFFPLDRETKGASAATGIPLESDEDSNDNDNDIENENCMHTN

[3] = target: T2, Squamous cell carcinoma antigen recognized by T cells 3 (SART3) (human (endogenous in HCT116)) (UniProt Q15020); test: as above
T2 sequence: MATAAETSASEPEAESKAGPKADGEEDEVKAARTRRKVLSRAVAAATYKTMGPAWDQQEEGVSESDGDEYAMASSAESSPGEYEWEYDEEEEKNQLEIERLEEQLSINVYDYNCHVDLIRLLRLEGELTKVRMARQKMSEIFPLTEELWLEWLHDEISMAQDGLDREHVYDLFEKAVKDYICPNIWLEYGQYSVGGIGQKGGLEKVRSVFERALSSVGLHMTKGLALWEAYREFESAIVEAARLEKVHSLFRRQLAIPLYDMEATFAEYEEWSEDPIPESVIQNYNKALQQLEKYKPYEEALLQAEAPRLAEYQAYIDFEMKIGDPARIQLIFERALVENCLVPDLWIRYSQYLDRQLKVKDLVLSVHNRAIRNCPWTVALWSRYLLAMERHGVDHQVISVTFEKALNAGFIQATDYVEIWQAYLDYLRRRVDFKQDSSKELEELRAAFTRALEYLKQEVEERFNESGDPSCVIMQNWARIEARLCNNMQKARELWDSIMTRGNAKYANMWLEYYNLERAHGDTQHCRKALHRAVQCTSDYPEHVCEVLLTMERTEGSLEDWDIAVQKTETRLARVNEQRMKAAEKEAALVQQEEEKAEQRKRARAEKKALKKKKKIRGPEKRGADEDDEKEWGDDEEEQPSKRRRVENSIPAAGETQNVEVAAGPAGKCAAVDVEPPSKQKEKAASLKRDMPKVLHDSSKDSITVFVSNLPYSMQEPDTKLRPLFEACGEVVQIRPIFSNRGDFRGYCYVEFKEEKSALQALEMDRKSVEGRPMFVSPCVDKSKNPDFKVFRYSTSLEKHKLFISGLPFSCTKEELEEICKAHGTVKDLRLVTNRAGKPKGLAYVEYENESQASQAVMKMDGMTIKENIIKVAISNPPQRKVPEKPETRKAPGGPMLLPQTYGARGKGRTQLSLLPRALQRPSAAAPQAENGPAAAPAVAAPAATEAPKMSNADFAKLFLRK

| Binder | binding [1] | binding [2] | binding [3] |
| --- | --- | --- | --- |
| Squamous cell carcinoma antigen recognized by T cells 3 (SART3) (protein, UniProt Q15020 1-963) MATAAETSASEPEAESKAGPKADGEEDEVKAARTRRKVLSRAVAAATYKTMGPAWDQQEEGVSESDGDEYAMASSAESSPGEYEWEYDEEEEKNQLEIERLEEQLSINVYDYNCHVDLIRLLRLEGELTKVRMARQKMSEIFPLTEELWLEWLHDEISMAQDGLDREHVYDLFEKAVKDYICPNIWLEYGQYSVGGIGQKGGLEKVRSVFERALSSVGLHMTKGLALWEAYREFESAIVEAARLEKVHSLFRRQLAIPLYDMEATFAEYEEWSEDPIPESVIQNYNKALQQLEKYKPYEEALLQAEAPRLAEYQAYIDFEMKIGDPARIQLIFERALVENCLVPDLWIRYSQYLDRQLKVKDLVLSVHNRAIRNCPWTVALWSRYLLAMERHGVDHQVISVTFEKALNAGFIQATDYVEIWQAYLDYLRRRVDFKQDSSKELEELRAAFTRALEYLKQEVEERFNESGDPSCVIMQNWARIEARLCNNMQKARELWDSIMTRGNAKYANMWLEYYNLERAHGDTQHCRKALHRAVQCTSDYPEHVCEVLLTMERTEGSLEDWDIAVQKTETRLARVNEQRMKAAEKEAALVQQEEEKAEQRKRARAEKKALKKKKKIRGPEKRGADEDDEKEWGDDEEEQPSKRRRVENSIPAAGETQNVEVAAGPAGKCAAVDVEPPSKQKEKAASLKRDMPKVLHDSSKDSITVFVSNLPYSMQEPDTKLRPLFEACGEVVQIRPIFSNRGDFRGYCYVEFKEEKSALQALEMDRKSVEGRPMFVSPCVDKSKNPDFKVFRYSTSLEKHKLFISGLPFSCTKEELEEICKAHGTVKDLRLVTNRAGKPKGLAYVEYENESQASQAVMKMDGMTIKENIIKVAISNPPQRKVPEKPETRKAPGGPMLLPQTYGARGKGRTQLSLLPRALQRPSAAAPQAENGPAAAPAVAAPAATEAPKMSNADFAKLFLRK | binds | binds | – |
| ubiquitin-specific peptidase USP15 (enzyme, UniProt Q9Y4E8 1-981) MAEGGAADLDTQRSDIATLLKTSLRKGDTWYLVDSRWFKQWKKYVGFDSWDKYQMGDQNVYPGPIDNSGLLKDGDAQSLKEHLIDELDYILLPTEGWNKLVSWYTLMEGQEPIARKVVEQGMFVKHCKVEVYLTELKLCENGNMNNVVTRRFSKADTIDTIEKEIRKIFSIPDEKETRLWNKYMSNTFEPLNKPDSTIQDAGLYQGQVLVIEQKNEDGTWPRGPSTPKSPGASNFSTLPKISPSSLSNNYNNMNNRNVKNSNYCLPSYTAYKNYDYSEPGRNNEQPGLCGLSNLGNTCFMNSAIQCLSNTPPLTEYFLNDKYQEELNFDNPLGMRGEIAKSYAELIKQMWSGKFSYVTPRAFKTQVGRFAPQFSGYQQQDCQELLAFLLDGLHEDLNRIRKKPYIQLKDADGRPDKVVAEEAWENHLKRNDSIIVDIFHGLFKSTLVCPECAKISVTFDPFCYLTLPLPMKKERTLEVYLVRMDPLTKPMQYKVVVPKIGNILDLCTALSALSGIPADKMIVTDIYNHRFHRIFAMDENLSSIMERDDIYVFEININRTEDTEHVIIPVCLREKFRHSSYTHHTGSSLFGQPFLMAVPRNNTEDKLYNLLLLRMCRYVKISTETEETEGSLHCCKDQNINGNGPNGIHEEGSPSEMETDEPDDESSQDQELPSENENSQSEDSVGGDNDSENGLCTEDTCKGQLTGHKKRLFTFQFNNLGNTDINYIKDDTRHIRFDDRQLRLDERSFLALDWDPDLKKRYFDENAAEDFEKHESVEYKPPKKPFVKLKDCIELFTTKEKLGAEDPWYCPNCKEHQQATKKLDLWSLPPVLVVHLKRFSYSRYMRDKLDTLVDFPINDLDMSEFLINPNAGPCRYNLIAVSNHYGGMGGGHYTAFAKNKDDGKWYYFDDSSVSTASEDQIVSKAAYVLFYQRQDTFSGTGFFPLDRETKGASAATGIPLESDEDSNDNDNDIENENCMHTN | – | – | binds |
